Data on 25 substances can be found in patent US12018048B2 (BOEHRINGER INGELHEIM ANIMAL HEALTH USA INC., priority 2015, dated 2024).

The first series in a line: general procedure: peptide synthesis; carbodiimides with HOBt; BOP, PyBOP, PyBrOP; TBTU/HBTU, HATU (listed as usable r). Particulars: coupling step.
On to “(1R)-1-[[(2S)-1-[2-(benzyloxy)-2-oxoethoxy]-3-cyclopropyl-1-oxopropan-2-yl](methyl)carbamoyl]-2-[4-(oxan-4-yl)phenyl]ethyl (2S)-2-[[(tert-butoxy)carbonyl](methyl)amino]-4-fluoro-4-methylpentanoate”, for which the step yield is 42%.

Take “(1R)-1-[[(2S)-1-[[(2R)-1-(benzyloxy)-1-oxopropan-2-yl]oxy]-3-cyclopropyl-1-oxopropan-2-yl](m-eth-yl)carbamoyl]-2-[4-(oxan-4-yl)phenyl]ethyl (2S)-2-[[(tert-butoxy)carbonyl](methyl)amino]-4-fluoro-4-methylpentanoate”: the step yield amounted to 68%.

In turn, “(1R)-1-[[(2S)-1-[[(2R)-1-(benzyloxy)-3-[4-(oxan-4-yl)phenyl]-1-oxopropan-2-yl]oxy]-4-fluoro-4-methyl-1-oxopentan-2-yl](methyl)carbamoyl]ethyl (2S)-2-[[(tert-butoxy)carbonyl](methyl)amino]-4-methylpentanoate” showed a step yield of 76%.

Take “(2R)-1-(benzyloxy)-1-oxopropan-2-yl (2S)-2-[(2R)-2-[[(2S)-2-[[(tert-butoxy)carbonyl](methyl)amino]-3-cyclopropylpropanoyl]oxy]-N-methyl-3-[4-(morpholin-4-yl)phenyl]propanamido]-4-methylpentanoate”: the step yield is reported as 59%.

The substance “(2R)-1-(benzyloxy)-1-oxopropan-2-yl (2S)-2-[(2R)-2-[[(2S)-2-[[(tert-butoxy)carbonyl](methyl)amino]-3-cyclopropylpropanoyl]oxy]-N-methyl-3-[6-(morpholin-4-yl)pyridin-3-yl]propanamido]-4-methylpentanoate” returned a step yield of 52%.

“(2R)-1-(benzyloxy)-3-[4-(3,6-dihydro-2H-pyran-4-yl)phenyl]-1-oxopropan-2-yl (2S)-2-[(2R)-2-[(1-[[(tert-butoxy)carbonyl](methyl)amino]cyclopropyl)carbonyloxy]—N-methylpropanamido]-4-fluoro-4-methylpentanoate” registered a step yield of 60%.

“(S)—((R)-1-(((S)-1-((R)-1-(benzyloxy)-1-oxopropan-2-yloxy)-3-cyclopropyl-1-oxopropan-2-yl)(methyl)amino)-3-(4-morpholinophenyl)-1-oxopropan-2-yl) 2-(tert-butoxycarbonyl(methyl)amino)-3-cyclopropylpropanoate” registered a step yield of 76%.

On to “(S)—((R)-1-(((S)-1-((R)-1-(benzyloxy)-1-oxopropan-2-yloxy)-3-cyclopropyl-1-oxopropan-2-yl)(methyl)amino)-3-(4-morpholinophenyl)-1-oxopropan-2-yl) 2-(tert-butoxycarbonyl(methyl)amino)-4-fluoro-4-methylpentanoate”, for which the step yield came out at 65%.

The series is the same for the next values; noted with them: cyclisation step.
As to “(3S,6R,9S,12R,15S,18R,21S,24R)-3,15-bis(cyclopropylmethyl)-9,21-bis(2-fluoro-2-methylpropyl)-4,-10,12,16,22,24-hexamethyl-6,18-bis([[4-(oxan-4-yl)phenyl]methyl])-1,7,13,19-tetraoxa-4,10,16,22-te-traazacyclotetracosan-2,5,8,11,14,17,20,23-octone”, the cyclisation yield worked out at 14%.

Turning to “(3S,6R,9S,15S,18R,21S)-3,15-bis(cyclopropylmethyl)-9,21-bis(2-fluoro-2-methylpropyl)-4,10,16,22-tetramethyl-6,18-bis([[4-(oxan-4-yl)phenyl]methyl])-1,7,13,19-tetraoxa-4,10,16,22-tetraazacyclotetracosan-2,5,8,11,14,17,20,23-octone”, the cyclisation yield was determined as 33%.

“(6R,9S,12R,15S,18R,21S,24R)-9,21-bis(2-fluoro-2-methylpropyl)-4,10,12,16,22,24-hexamethyl-15-(2-methylpropyl)-6,18-bis([[4-(oxan-4-yl)phenyl]methyl])-7,13,19,25-tetraoxa-4,10,16,22-tetraazaspiro[2.23]hexacosan-5,8,11,14,17,20,23,26-octone” showed a cyclisation yield of 39%.

As to “(6R,9S,12R,20R,23S,26R)-9,23-bis(2-fluoro-2-methylpropyl)-4,10,12,18,24,26-hexamethyl-6,20-bis([[4-(oxan-4-yl)phenyl]methyl])-7,13,21,27-tetraoxa-4,10,18,24-tetraazadispiro[2.11.2^[15].11^[3]]octacosan-5,8,11,14,19,22,25,28-octone”, the cyclisation yield came out at 29%.

The same series, now with this note: cyclisation step, on linear precursor OAC6-1.
Substance “(3S,6R,9S,12R,15S,18R,21S,24R)-3,9,15,21-tetrakis(cyclopropylmethyl)-4,10,12,16,22,24-hexamethyl-6,18-bis([[4-(morpholin-4-yl)phenyl]methyl])-1,7,13,19-tetraoxa-4,10,16,22-tetraazacyclotetracosan-2,5,8,11,14,17,20,23-octone” showed a cyclisation yield of 13%.

Staying with this series, now noted: cyclisation step, on linear precursor OAC6-7.
Substance “(3S,6R,9S,12R,15S,18R,21S,24R)-3,15-bis(cyclopropylmethyl)-4,6,10,16,18,22-hexamethyl-9,21-bis(2-methylpropyl)-12,24-bis([[4-(morpholin-4-yl)phenyl]methyl])-1,7,13,19-tetraoxa-4,10,16,22-tetraazacyclotetracosan-2,5,8,11,14,17,20,23-octone” had a cyclisation yield of 8%.

Still in this series, the particulars now being: cyclisation step, on linear precursor OAC9-7.
“(3S,6R,9S,12R,15S,18R,21S,24R)-3,15-bis(cyclopropylmethyl)-4,6,10,16,18,22-hexamethyl-9,21-bis(2-methylpropyl)-12,24-bis([[6-(morpholin-4-yl)pyridin-3-yl]methyl])-1,7,13,19-tetraoxa-4,10,16,22-tetraazacyclotetracosan-2,5,8,11,14,17,20,23-octone” yielded a cyclisation yield of 12%.

The same series, now with this note: late stage modification step.
For the substance “(1R)-1-[[(2S)-1-[[(2R)-1-(benzyloxy)-1-oxopropan-2-yl]oxy]-3-cyclopropyl-1-oxopropan-2-yl](methyl)carbamoyl]-2-[4-(morpholin-4-yl)phenyl]ethyl (2S)-4-fluoro-4-methyl-2-(methylamino)pentanoate”, the step yield came to 99%.

Take “(2R)-1-(benzyloxy)-1-oxopropan-2-yl (2S)-2-[(2R)-2-[[(2S)-3-cyclopropyl-2-(methylamino)propanoyl]oxy]-N-methyl-3-[4-(morpholin-4-yl)phenyl]propanamido]-4-methylpentanoate”: the step yield was found to be 94%.

The substance “(2R)-1-(benzyloxy)-1-oxopropan-2-yl (2S)-2-[(2R)-2-[[(2S)-3-cyclopropyl-2-(methylamino)propanoyl]oxy]-N-methyl-3-[6-(morpholin-4-yl)pyridin-3-yl]propanamido]-4-methylpentanoate” had a step yield of 97%.

“(2R)-2-[[(2S)-2-[(2R)-2-[(1-[[(tert-butoxy)carbonyl](methyl)amino]cyclopropyl)carbonyloxy]-N-methylpropanamido]-4-fluoro-4-methylpentanoyl]oxy]-3-[4-(oxan-4-yl)phenyl]propanoic acid” gave a step yield of 83%.

In turn, “(2R)-2-[[(2S)-2-[(2R)-2-[[(2S)-2-[[(tert-butoxy)carbonyl](methyl)amino]-3-cyclopropylpropanoyl]oxy]-N-methyl-3-[4-(morpholin-4-yl)phenyl]propanamido]-3-cyclopropylpropanoyl]oxy]propanoic acid” came in with a step yield of 88%.

For the substance “(2R)-2-[[(2S)-2-[(2R)-2-[[(2S)-2-[[(tert-butoxy)carbonyl](methyl)amino]-3-cyclopropylpropanoyl]oxy]-N-methyl-3-[4-(morpholin-4-yl)phenyl]propanamido]-4-methylpentanoyl]oxy]propanoic acid”, the step yield turned out to be 91%.

In the case of “(2R)-2-[[(2S)-2-[(2R)-2-[[(2S)-2-[[(tert-butoxy)carbonyl](methyl)amino]-3-cyclopropylpropanoyl]oxy]-N-methyl-3-[6-(morpholin-4-yl)pyridin-3-yl]propanamido]-4-methylpentanoyl]oxy]propanoic acid”, the step yield was 98%.

“(2R)-2-[[(2S)-2-[(2R)-2-[[(2S)-2-[[(tert-butoxy)carbonyl](methyl)amino]-4-fluoro-4-methylpentanoy-1]oxy]-N-methyl-3-[4-(oxan-4-yl)phenyl]propanamido]-3-cyclopropylpropanoyl]oxy]propanoic acid” displayed a step yield of 97%.

In turn, “(2R)-2-[[(2S)-2-[(2R)-2-[[(2S)-2-[[(tert-butoxy)carbonyl](methyl)amino]-4-fluoro-4-methylpentanoyl]oxy]-N-methyl-3-[4-(morpholin-4-yl)phenyl]propanamido]-3-cyclopropylpropanoyl]oxy]propanoic acid” gave a step yield of 83%.

On to “(S)—((R)-1-(benzyloxy)-1-oxopropan-2-yl) 3-cyclopropyl-2((R)-2((S)-3-cyclopropyl-2-(methylamino)propanoyloxy)-N-methyl-3-(4-morpholinophenyl)propanamido)propanoate”, for which the step yield is on record as 94%.
